# This is one part of the list.
# The chains behind the UniProt entries cited, without tags or fusion partners.
# UniProt Q0JBA9, entry or part of it: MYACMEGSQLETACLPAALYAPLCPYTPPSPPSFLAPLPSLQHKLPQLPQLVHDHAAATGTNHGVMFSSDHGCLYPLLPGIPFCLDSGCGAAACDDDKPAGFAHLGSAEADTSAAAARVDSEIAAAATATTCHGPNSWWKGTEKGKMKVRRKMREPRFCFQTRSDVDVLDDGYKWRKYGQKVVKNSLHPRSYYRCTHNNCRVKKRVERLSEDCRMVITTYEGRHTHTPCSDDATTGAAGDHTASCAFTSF
# Target: OsWRKY34 (Oryza sativa, UniProt Q0JBA9 1-250)
# Assay: protein-binding microarray (RPBM); PBS, 2% BSA, 51.3 ng/ul salmon testes DNA, 50 uM zinc acetate, 200 nM TF, 25 C, 1 h; high values mean tight binding
# Conditions: protein: recombinant; tags: N-terminal polyhistidine and DsRed monomer fusion (pET32a); label: CyDye5-dUTP incorporated in the synthesized complementary strand; 3' TTTTT single-stranded linker to array surface; dsDNA, one strand shown
# How it was run: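 Per-feature fluorescence intensity (arbitrary units), read on an Axon 4000B scanner, is the binding signal. Transcription factors carrying an N-terminal polyhistidine tag and DsRed fusion were expressed in E. coli BL21-CodonPlus and purified on Ni–NTA. A custom Agilent array, made double-stranded by primer extension with Cy5-dUTP and blocked with 2% BSA, was incubated with 200 nM protein in PBS, 2% BSA, salmon testes DNA and 50 µM zinc acetate at 25 °C for 1 h and then washed.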
row,Sequence,binding signal
1,CACCCATGGGTTGGTGGGTACGGCCGTACGGGTGGGTAAACGGAGTCACCTAGTGCAG,9590 fluorescence intensity (a.u.)
2,TCTTCTTCTTGCGCTTCTTGGCGCCGCCGCGGAGGCGGAGCGGAGTCACCTAGTGCAG,8650 fluorescence intensity (a.u.)
3,ATTTTCTTTTGGGGACCATCTCATCTCACCCACCCTCAAACGGAGTCACCTAGTGCAG,9930 fluorescence intensity (a.u.)
4,AGTTCCCAGCTTTCTCTTCCCATTTCGATTGCGGCCATCTCGGAGTCACCTAGTGCAG,8360 fluorescence intensity (a.u.)
5,ACCGCGCGTGCTCAGTCGTACTAGAACCAAATCACACTCTCGGAGTCACCTAGTGCAG,9060 fluorescence intensity (a.u.)
6,ATTCTCTTCTGTTCTTGGATAGATATCCATCCGATCCGACCGGAGTCACCTAGTGCAG,8060 fluorescence intensity (a.u.)
7,AAACATTCGAAATTACACACTTACACCTTCTACCTCTGCTCGGAGTCACCTAGTGCAG,8192 fluorescence intensity (a.u.)
8,ACACATTCTCTCTCTCACTCACTCACTCTTCCTCTCTCTCCGGAGTCACCTAGTGCAG,8320 fluorescence intensity (a.u.)
9,CTGGGTTCGTATCTTCATTGGGCTGCGATTTTCTCGATACCGGAGTCACCTAGTGCAG,11300 fluorescence intensity (a.u.)
10,ATCTACCTACTTTATGTCTGCACCCGAATTTTTGGGACTTCGGAGTCACCTAGTGCAG,8720 fluorescence intensity (a.u.)
11,CGCCGCCGCCTCGCGCCATCGCCAACGCCGTCCCCGTCACCGGAGTCACCTAGTGCAG,9320 fluorescence intensity (a.u.)
12,ACACATTTCCCCATGCACATCTCCCTCAATCTCTCTCTCTCGGAGTCACCTAGTGCAG,8750 fluorescence intensity (a.u.)
13,TTCTGCCCTGACTATCATAGCCACATCTCCATAATAGACACGGAGTCACCTAGTGCAG,9920 fluorescence intensity (a.u.)
14,TCTCCTCATCATCCGAGTCGTCATCATCATCGTCGTCGTCCGGAGTCACCTAGTGCAG,8940 fluorescence intensity (a.u.)
15,TTTGCTTGGCCTAGGGTTTGGTGGATTTGCGTCCCTGTGACGGAGTCACCTAGTGCAG,8960 fluorescence intensity (a.u.)
16,ACTTAAGTACTGCCTAATAAACACACAGCGGCAAAATTGACGGAGTCACCTAGTGCAG,8120 fluorescence intensity (a.u.)
17,GTGCAATAACCATTTCCTCTTTTTCCCTGATGTATTAACTCGGAGTCACCTAGTGCAG,9380 fluorescence intensity (a.u.)
18,CTGGTATTTTTATTTTTCTCATGATGGGTTTATAATTTTACGGAGTCACCTAGTGCAG,9760 fluorescence intensity (a.u.)
19,GTCACATTGTTGTTTCGGTACTCAAATTGCATTCCTCTGACGGAGTCACCTAGTGCAG,8980 fluorescence intensity (a.u.)
20,CGTCTCATTTTAAGTACAATTGTGGATTTCTGTGTCTAACCGGAGTCACCTAGTGCAG,10400 fluorescence intensity (a.u.)
21,GATTGTCATTTTCTCATTTTCTTTTATTTCCGGAATCTTTCGGAGTCACCTAGTGCAG,8910 fluorescence intensity (a.u.)

# Quoted at random: two records from the list.
row,Sequence,binding signal
12,ACACATTTCCCCATGCACATCTCCCTCAATCTCTCTCTCTCGGAGTCACCTAGTGCAG,8750 fluorescence intensity (a.u.)
13,TTCTGCCCTGACTATCATAGCCACATCTCCATAATAGACACGGAGTCACCTAGTGCAG,9920 fluorescence intensity (a.u.)

# (continued)

row,Sequence,binding signal
1,ATGATCATAGCCATTTTTCCTCGCTTTAAATATTTGCTACCGGAGTCACCTAGTGCAG,8490 fluorescence intensity (a.u.)
2,ACCGCTCATCTCCACTCTCCACTACTCCAGATCTTGACATCGGAGTCACCTAGTGCAG,8320 fluorescence intensity (a.u.)
3,AGGGTAGTGAGTCTTTTGGTTGGAGTGGAGTTGTGTAGCACGGAGTCACCTAGTGCAG,8570 fluorescence intensity (a.u.)
4,GTGATGTTTGATCTTGTTCTTGTTGTTGTTGTTGTGGATGCGGAGTCACCTAGTGCAG,8090 fluorescence intensity (a.u.)
5,GTACTACTAGCTTGTCCAAGACTCGAGCCACTATATAAACCGGAGTCACCTAGTGCAG,8080 fluorescence intensity (a.u.)
6,ATATGTCGCCCTGCCATCTCATCCGCCCTACTACATCCGTCGGAGTCACCTAGTGCAG,12700 fluorescence intensity (a.u.)
7,CCGACCGTCACTTGCATTGTCCTCGTCCTCCGCCATCGACCGGAGTCACCTAGTGCAG,9350 fluorescence intensity (a.u.)
8,GGCATCCCACTCCCAACGTATTTTCACACGCAACTATTTTCGGAGTCACCTAGTGCAG,8540 fluorescence intensity (a.u.)
9,TGTGGTGGGGCATGAGCAGTTCTTTTGTTTAGAATGTTTACGGAGTCACCTAGTGCAG,11900 fluorescence intensity (a.u.)
10,CGGTCTACCCATGTCTATCAAGTATCAACTGGCCATTGACCGGAGTCACCTAGTGCAG,9960 fluorescence intensity (a.u.)
11,CAGCCTCGATGACTCCATTTTCCCTGGCGGCGCCGCACCGCGGAGTCACCTAGTGCAG,10300 fluorescence intensity (a.u.)
12,AAAAAGTCAACGGCGTCATATATTAAAATATGGAGAGAGTCGGAGTCACCTAGTGCAG,8150 fluorescence intensity (a.u.)
13,ACTCGCCGTCGCCCACCCCTTCCGCTTTCCGCCGCCGCCGCGGAGTCACCTAGTGCAG,9760 fluorescence intensity (a.u.)
14,GTCCACGACCACTCTACGGCGCCCCATGCGCGTCCTGCGGCGGAGTCACCTAGTGCAG,8260 fluorescence intensity (a.u.)
15,GCAACACCACTCCGTCTGCCTCCGTCAACGCTCCACCATTCGGAGTCACCTAGTGCAG,9500 fluorescence intensity (a.u.)
16,GCCGCATCTTCTCGTTCTTCCTCACCCACAGCGTCTTCGTCGGAGTCACCTAGTGCAG,9320 fluorescence intensity (a.u.)
17,ACGCAATTTTTCACCCTGGGTTGCCACTTTGGCATGCTACCGGAGTCACCTAGTGCAG,8640 fluorescence intensity (a.u.)
18,TGAAAGGGGTTGATGTGTGGTGAAGGGTAGGTAATTTGTACGGAGTCACCTAGTGCAG,10700 fluorescence intensity (a.u.)
19,AATCTCACCCACAAGCATATCTCTCGCACCATTCCACCCTCGGAGTCACCTAGTGCAG,9100 fluorescence intensity (a.u.)
20,ATCTCTGACCTATATTCTCTGGTCATTGGCCGTGTACATCCGGAGTCACCTAGTGCAG,8990 fluorescence intensity (a.u.)
21,TGCTCTAGTGTCCAATTGTGCTGCAGCCCTGTCTGACCTTCGGAGTCACCTAGTGCAG,10400 fluorescence intensity (a.u.)

# From PMC7819943, “Rice protein-binding microarrays: a tool to detect cis-acting elements near promoter regions in rice”
